# According to PubChem BioAssay (NCATS):
# Protein sequences, listed by entry. Tags and fused reporters are not part of them. Lines headed by an entry give the natural chain unless they say otherwise; changes in a name come on top.
# UniProt O15648: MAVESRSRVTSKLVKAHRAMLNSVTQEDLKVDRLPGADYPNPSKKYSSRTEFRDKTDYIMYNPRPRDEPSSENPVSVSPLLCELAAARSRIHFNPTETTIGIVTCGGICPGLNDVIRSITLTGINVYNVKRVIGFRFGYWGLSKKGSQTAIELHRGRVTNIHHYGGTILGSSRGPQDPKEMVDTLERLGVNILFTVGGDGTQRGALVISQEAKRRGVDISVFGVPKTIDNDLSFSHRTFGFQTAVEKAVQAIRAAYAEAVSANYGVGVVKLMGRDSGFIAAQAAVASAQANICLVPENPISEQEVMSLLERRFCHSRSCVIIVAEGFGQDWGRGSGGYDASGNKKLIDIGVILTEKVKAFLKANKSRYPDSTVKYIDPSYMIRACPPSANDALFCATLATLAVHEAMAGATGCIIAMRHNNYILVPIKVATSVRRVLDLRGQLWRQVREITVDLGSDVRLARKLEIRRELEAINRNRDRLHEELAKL
# UniProt P83916, whole entry, looked up: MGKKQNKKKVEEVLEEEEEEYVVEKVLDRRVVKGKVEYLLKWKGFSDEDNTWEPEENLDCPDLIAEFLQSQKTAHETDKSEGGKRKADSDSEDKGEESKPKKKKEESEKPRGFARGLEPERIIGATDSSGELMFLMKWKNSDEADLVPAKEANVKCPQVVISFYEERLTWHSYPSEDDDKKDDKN
# This list was built around the results that the source calls inconclusive (neither active nor inactive); the mix of calls is not that of the screen. For some assays here: A potency beside an inconclusive call is a rough fit, not a confirmed value. Calls of active or inactive are those of the source. Unless noted, calls come from the whole dose curve; as a rule, active = well fitted curve in the direction sought with a large enough effect; inconclusive = small, poorly fitted or top-dose-only effect, or another doubt; inactive = no such curve, though single readings can be large; an effect the other way counts as inactive or inconclusive.
# Tests used:
# [1] = biological target: ATP-dependent 6-phosphofructokinase (Trypanosoma brucei brucei) (UniProt O15648); experiment: qHTS Validation Assay to Find Inhibitors of T. brucei phosphofructokinase (AID 485368); note: potency is the fitted concentration of half-maximal effect
# Method in brief: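 Enzyme reaction in triethanolamine buffer pH 8.0 with 5 mM MgCl2, 0.01% Tween20 and 0.1% BSA; PFK 1.25 nM, F6P 0.5 mM, ATP 0.1 mM, 45 min RT. ADP quantified by ADP-Glo.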
# [2] = qHTS to identify inhibitors of the type 1 interferon - major histocompatibility complex class I in skeletal muscle: primary screen against the NCATS LOPAC collection (AID 1347405);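 note: lytic HiBiT luminescence reporting HLA-B protein level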; note: potency is the fitted concentration of half-maximal effect; for activity change, negative = inhibition: % is set by controls: 0 for no effect and ±100 for the full control effect
# Method in brief: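 Luminescence from HiBiT fused to endogenous HLA-B in CRISPR-engineered human myoblasts served as the read-out. Cells received 4.0 ng/ml IFN-beta plus compound (seven concentrations, 1:4.3 steps, highest 46 uM final) for 24 hrs before lytic detection.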
# [3] = qHTS to identify inhibitors of the type 1 interferon - major histocompatibility complex class I in skeletal muscle: primary screen against the NCATS Mechanism Interrogation Plate v5.0 (MIPE) Libary (AID 1347411); settings: iHSKM cells + IFN-b, HiBiT-tagged MHC-I luminescence, 24 h; activity change, negative = inhibition: at 45.8 µM (top of the series); note: nearly all actives have a fitted effect of over 65% in size; note: potency is the fitted concentration of half-maximal effect;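 for activity change, negative = inhibition: plate controls were vehicle for no effect and reference inhibitor for full effect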
# Method in brief: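 Luminescence from HiBiT-tagged endogenous HLA-B*08:01 served as the MHC class I read-out. CRISPR-engineered C25cl48 human myoblasts received 4.0 ng/ml IFN-beta plus compound for 24 hrs, with an 11-point, 1:3 series topping at 46 uM final.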
# [4] = qHTS Assay for Identification of Small Molecule Antagonists for NFkB Signaling Pathway (AID 895; active = well fitted inhibition curve with a large enough effect in the signal ratio, with a control signal flat, not every such curve was filed as active; inconclusive = small, poorly fitted or top-dose-only effect, or effect the other way, or a change in a side signal; the % refers to the signal ratio; note: potency is the fitted concentration of half-maximal effect); settings: NFkB beta-lactamase reporter cells, FRET ratio 460/530, stimulated with 10 pM TNF alpha; activity change, negative = inhibition: at 38.3 µM (top of the series)
# Method in brief: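 Beta-lactamase reporter read-out (460 and 530 nm emission ratio, 405 nm excitation, 2 hrs substrate loading RT) after 5 hr stimulation with 10 pM TNF alpha in compound-treated NFkB-bla ME-180 cells in low-serum medium.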
# [5] = qHTS Assay for Identification of Small Molecule Agonists for Hypoxia Response Element Signaling Pathway (AID 914; active = well fitted activation curve with a large enough effect in the signal ratio, with a control signal flat, not every such curve was filed as active; inconclusive = small, poorly fitted or top-dose-only effect, or effect the other way, or a change in a side signal; the % refers to the signal ratio; note: % of control where 0% means no effect); settings: ME-180 (cervical carcinoma) HRE-bla reporter, beta-lactamase ratio, CoCl2, 17 h; activation: hits give high values
# Method in brief: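 Compounds in a titration series were added to ME-180 reporter cells alongside an EC50 level of CoCl2. After 17 hours, beta-lactamase activity was read as the 460nm/530nm emission ratio of CCF4, giving AC50 values.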
# [6] = qHTS Assay for Identification of Small Molecule Antagonists for Thrombopoietin (TPO) Signaling Pathway (AID 918); settings: TPO-dependent cell signaling reporter, antagonist mode; activity change, negative = inhibition: at 38.5 µM (top of the series)
# Method in brief: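 Ba/F3 (murine, hTPO-R, GPIIb-luc reporter); overnight IL-3 withdrawal; cpd + TPO 26 pM final (EC50); 24 h 37 C/5% CO2; Steadylite luminescence after 10 min RT.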
# [7] = biological target: Chromobox protein homolog 1 (Homo sapiens) (UniProt P83916); experiment: qHTS Validation Assay for Inhibitors of HP1-beta Chromodomain Interactions with Methylated Histone Tails (AID 488953);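 note: loss of AlphaScreen luminescence from HP1-beta binding biotinylated H3K9me3 peptide; % is set by controls: 0 for no effect and ±100 for the full control effect; nearly all actives have a fitted effect of over 50% in size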
# Method in brief: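 50 nM HP1-beta + 50 nM biotin-H3(1-18)K9me3, PBS pH 7.4, 0.01% Tween-20, 30 min RT; compound added, 30 min RT; AlphaScreen beads 10 ug/mL final, 30 min dark; luminescence read.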
# [8] = Nrf2 qHTS screen for inhibitors: Validation (AID 493153; active = well fitted inhibition curve with a large enough effect in the main read-out, with a control signal flat, not every such curve was filed as active; inconclusive = small, poorly fitted or top-dose-only effect, or effect the other way, or a change in a side signal; inactive = no such curve, though single readings can be large or run the other way; note: potency is the fitted concentration of half-maximal effect)
# Method in brief: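 Luminescence from an ARE-firefly luciferase reporter in A549 cells gives Nrf2 inhibition; an earlier CellTiter-Fluor fluorescent read flags cytotoxicity. Cells in 5% FBS OPTI-MEM received compound dilution series for 18-24 h at 37°C.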
# [9] = Inducers of the Endoplasmic Reticulum Stress Response (ERSR) in human glioma: Validation (AID 504836); settings: human glioma cells, ER stress response reporter; note: potency is the fitted concentration of half-maximal effect
# Method in brief: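 ERSR induction read as luciferase luminescence (Bright-Glo, 10 min at room temperature) in stably transfected human U87-MG glioma cells exposed to compounds for 16 h, using GRP78 as sensor.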
structure (smiles),measurement,setting,value
CCN(CC)c1ncnc2c1ncn2[C@@H]1O[C@H](COP(=O)(O)OP(=O)(O)C(Br)(Br)P(=O)(O)O)[C@@H](O)[C@H]1O,Potency,[1],inactive
same,Potency,[2],inactive
O=C1OC2(CCC(C(=O)Nc3ccn(-c4ccccc4F)n3)CC2)c2cnccc21 (stereo unspecified),Potency,[3],inactive
Cc1ccc(-c2nn(C(C)(C)CNC(=O)c3ccncc3)c3ncnc(N)c23)cc1,Potency,[3],"inconclusive: 16.5 µM [inhibitor, partial curve]"
CC1Cc2ccccc2N1C(=O)Cc1nc(N2CCOCC2)cc(=O)[nH]1 (stereo unspecified),Potency,[3],inactive
CC1=C2C[C@H]3[C@@H](CC[C@@H]4C[C@H](NS(C)(=O)=O)CC[C@@]43C)[C@@H]2CC[C@@]2(C1)O[C@@H]1C[C@H](C)CN[C@H]1[C@H]2C,Potency,[3],"inconclusive: 14.7 µM [inhibitor, partial curve]"
CC[N+](CC)(CC)CC,Potency,[4],"inconclusive: 11.2 µM [inhibitor, single point]"
same,activation,[5],inconclusive: -26.5%
same,"activity change, negative = inhibition",[6],inconclusive: -9.42% [phenotype inactive]
same,Potency,[1],"inconclusive: 33.8 µM [activator, single point]"
same,Potency,[2],inactive
CCOC(=O)CCNc1cc(N2CCc3ccccc3CC2)nc(-c2ccccn2)n1,Potency,[3],"inconclusive: 29.4 µM [inhibitor, single point]"
O=C(NCc1ccccc1)[C@H](Cc1ccccc1)NC(=O)[C@H]1O[C@@H]1C(=O)NCCc1ccc(O)cc1,Potency,[3],inactive
C/C(=N\NC(=O)c1cccc(S(=O)(=O)N2CCOCC2)c1)c1cc(Cl)ccc1O,Potency,[3],inactive
CC[C@H]1OC(=O)[C@H](C)C(=O)[C@H](C)[C@@H](O[C@H]2O[C@H](C)C[C@H](N(C)C)[C@H]2O)[C@](C)(OC)C[C@@H](C)C(=O)[C@H](C)[C@H]2N(CCCCn3cnc(-c4cccnc4)c3)C(=O)O[C@]12C,Potency,[3],inactive
O=C(NO)C1(CS(=O)(=O)c2ccc(Oc3ccc(Cl)cc3)cc2)CCOCC1,Potency,[3],"inconclusive: 18.6 µM [inhibitor, partial curve]"
C#C[C@]1(O)CC[C@H]2[C@@H]3CCC4=Cc5oncc5CC4(C)[C@H]3CCC21C (stereo partly specified),Potency,[1],"inconclusive: 7.57 µM [falling, single point]"
same,Potency,[7],inactive
same,Potency,[8],"inconclusive: 18.4 µM [inhibitor, partial curve, poor fit]"
same,Potency,[9],"inconclusive: 5.85 µM [activator, single point]"
same,Potency,[2],"inconclusive: 11.2 µM [inhibitor, partial curve]"
O=C(CCCCCCNC(=O)c1cnc(N(c2ccccc2)c2ccccc2Cl)nc1)NO,Potency,[3],"inconclusive: 16.5 µM [inhibitor, partial curve]"
CCc1cnn2c(NCc3ccc[n+]([O-])c3)cc(N3CCCC[C@H]3CCO)nc12,Potency,[3],active: 0.0052 µM
C=C1[C@H](OC(=O)/C=C(\C)CC)C[C@@H](C(C)C)[C@@H]2[C@H]([C@@H](C)OC(C)=O)C(=O)C[C@@H]12,Potency,[3],"inconclusive: 18.6 µM [inhibitor, partial curve]"
Cc1ccc(Sc2ccccc2N2CCNCC2)c(C)c1,Potency,[3],"inconclusive: 26.2 µM [inhibitor, single point]"
CN(C)Cc1ccc(S(=O)(=O)n2ccc(/C=C/C(=O)NO)c2)cc1,Potency,[3],"inconclusive: 5.87 µM [inhibitor, full curve]"

# A section taken from the entries so far:
structure (smiles),measurement,setting,value
CCc1cnn2c(NCc3ccc[n+]([O-])c3)cc(N3CCCC[C@H]3CCO)nc12,Potency,[3],active: 0.0052 µM
C=C1[C@H](OC(=O)/C=C(\C)CC)C[C@@H](C(C)C)[C@@H]2[C@H]([C@@H](C)OC(C)=O)C(=O)C[C@@H]12,Potency,[3],"inconclusive: 18.6 µM [inhibitor, partial curve]"
Cc1ccc(Sc2ccccc2N2CCNCC2)c(C)c1,Potency,[3],"inconclusive: 26.2 µM [inhibitor, single point]"
CN(C)Cc1ccc(S(=O)(=O)n2ccc(/C=C/C(=O)NO)c2)cc1,Potency,[3],"inconclusive: 5.87 µM [inhibitor, full curve]"
